Results are given in words; binding and its absence hold for the method and conditions named. Some entries that bind do so weakly or less than the wild type.
Key:
Test in all cases: peptide or protein array; HuProt human proteome microarray; 5 ug/5 ml biotin-labelled LUBAC or OTULIN in solution, 1 h at room temperature; Cy5-streptavidin, scanned at 635 nm; BSA as negative control; hits: Z-score >= 3 and I_(Mean_Ratio) >= 1.4; both purified
[1] = target: CTBP2 (human) (UniProt P56545)
[2] = target: ELAVL1 (human) (UniProt Q15717)
[3] = target: ELAVL2 (human) (UniProt Q12926)
[4] = target: ISG20 (human) (UniProt Q96AZ6)
[5] = target: T1, LOR (human) (UniProt P23490)
T1 sequence: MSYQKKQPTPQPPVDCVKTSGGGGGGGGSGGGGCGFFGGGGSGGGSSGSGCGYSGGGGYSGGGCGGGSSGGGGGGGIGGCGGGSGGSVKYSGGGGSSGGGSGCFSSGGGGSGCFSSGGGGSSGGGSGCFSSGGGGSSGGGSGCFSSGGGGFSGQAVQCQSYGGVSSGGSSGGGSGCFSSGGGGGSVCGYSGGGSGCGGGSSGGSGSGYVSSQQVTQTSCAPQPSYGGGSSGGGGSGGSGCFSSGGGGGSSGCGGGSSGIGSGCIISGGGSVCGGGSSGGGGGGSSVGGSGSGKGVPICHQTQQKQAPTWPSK

Amino acid sequences for entries named in this document (tags omitted).
UniProt Q15717: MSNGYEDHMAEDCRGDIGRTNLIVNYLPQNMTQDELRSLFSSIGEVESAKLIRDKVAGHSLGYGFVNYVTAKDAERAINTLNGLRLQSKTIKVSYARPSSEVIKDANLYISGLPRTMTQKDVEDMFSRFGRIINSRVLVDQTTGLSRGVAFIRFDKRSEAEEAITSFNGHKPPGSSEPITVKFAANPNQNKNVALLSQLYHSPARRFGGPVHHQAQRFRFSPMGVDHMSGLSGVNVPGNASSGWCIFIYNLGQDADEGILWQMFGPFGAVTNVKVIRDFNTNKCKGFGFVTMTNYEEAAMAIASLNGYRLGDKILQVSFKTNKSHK
UniProt Q12926: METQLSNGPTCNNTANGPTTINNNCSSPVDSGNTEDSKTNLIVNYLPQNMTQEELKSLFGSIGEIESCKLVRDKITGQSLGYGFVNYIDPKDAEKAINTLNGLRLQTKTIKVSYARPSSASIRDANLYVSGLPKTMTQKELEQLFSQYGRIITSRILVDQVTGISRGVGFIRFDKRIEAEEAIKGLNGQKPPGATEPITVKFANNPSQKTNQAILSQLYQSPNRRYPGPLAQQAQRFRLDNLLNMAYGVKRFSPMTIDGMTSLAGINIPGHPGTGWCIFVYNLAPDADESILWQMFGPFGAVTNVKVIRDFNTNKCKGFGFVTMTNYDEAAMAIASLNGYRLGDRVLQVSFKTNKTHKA
UniProt Q96AZ6: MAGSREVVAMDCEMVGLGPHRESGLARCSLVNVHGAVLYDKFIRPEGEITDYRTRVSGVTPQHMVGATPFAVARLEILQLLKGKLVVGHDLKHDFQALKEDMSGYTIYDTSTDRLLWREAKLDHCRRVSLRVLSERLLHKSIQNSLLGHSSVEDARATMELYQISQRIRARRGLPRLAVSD
UniProt Q96DH6: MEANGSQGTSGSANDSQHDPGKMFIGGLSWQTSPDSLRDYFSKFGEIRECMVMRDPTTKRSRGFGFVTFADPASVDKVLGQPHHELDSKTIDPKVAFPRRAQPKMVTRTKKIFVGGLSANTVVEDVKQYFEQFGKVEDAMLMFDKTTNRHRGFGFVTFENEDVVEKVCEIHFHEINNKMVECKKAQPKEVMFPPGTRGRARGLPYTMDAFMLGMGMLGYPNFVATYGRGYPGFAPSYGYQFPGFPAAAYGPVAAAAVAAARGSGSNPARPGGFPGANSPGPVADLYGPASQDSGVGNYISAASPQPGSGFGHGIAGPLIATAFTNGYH
UniProt Q53SZ7: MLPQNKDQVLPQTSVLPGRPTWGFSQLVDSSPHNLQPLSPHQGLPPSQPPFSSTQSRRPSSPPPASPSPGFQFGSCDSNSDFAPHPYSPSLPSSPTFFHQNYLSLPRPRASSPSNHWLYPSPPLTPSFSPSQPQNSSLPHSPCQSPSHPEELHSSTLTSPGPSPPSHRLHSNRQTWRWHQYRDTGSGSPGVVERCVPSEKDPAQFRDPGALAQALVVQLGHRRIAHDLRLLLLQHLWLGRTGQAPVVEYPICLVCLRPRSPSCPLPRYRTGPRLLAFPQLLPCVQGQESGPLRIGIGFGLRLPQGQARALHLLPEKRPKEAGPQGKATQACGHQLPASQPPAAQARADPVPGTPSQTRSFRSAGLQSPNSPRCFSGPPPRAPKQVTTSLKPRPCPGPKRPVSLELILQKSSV

[6] = target: MSI2 (human) (UniProt Q96DH6)
[7] = target: PNKP (human) (UniProt Q96T60)
[8] = target: PRR30 (human) (UniProt Q53SZ7)
[9] = target: T2, SMARCAL1 (human) (UniProt Q9NZC9)
T2 sequence: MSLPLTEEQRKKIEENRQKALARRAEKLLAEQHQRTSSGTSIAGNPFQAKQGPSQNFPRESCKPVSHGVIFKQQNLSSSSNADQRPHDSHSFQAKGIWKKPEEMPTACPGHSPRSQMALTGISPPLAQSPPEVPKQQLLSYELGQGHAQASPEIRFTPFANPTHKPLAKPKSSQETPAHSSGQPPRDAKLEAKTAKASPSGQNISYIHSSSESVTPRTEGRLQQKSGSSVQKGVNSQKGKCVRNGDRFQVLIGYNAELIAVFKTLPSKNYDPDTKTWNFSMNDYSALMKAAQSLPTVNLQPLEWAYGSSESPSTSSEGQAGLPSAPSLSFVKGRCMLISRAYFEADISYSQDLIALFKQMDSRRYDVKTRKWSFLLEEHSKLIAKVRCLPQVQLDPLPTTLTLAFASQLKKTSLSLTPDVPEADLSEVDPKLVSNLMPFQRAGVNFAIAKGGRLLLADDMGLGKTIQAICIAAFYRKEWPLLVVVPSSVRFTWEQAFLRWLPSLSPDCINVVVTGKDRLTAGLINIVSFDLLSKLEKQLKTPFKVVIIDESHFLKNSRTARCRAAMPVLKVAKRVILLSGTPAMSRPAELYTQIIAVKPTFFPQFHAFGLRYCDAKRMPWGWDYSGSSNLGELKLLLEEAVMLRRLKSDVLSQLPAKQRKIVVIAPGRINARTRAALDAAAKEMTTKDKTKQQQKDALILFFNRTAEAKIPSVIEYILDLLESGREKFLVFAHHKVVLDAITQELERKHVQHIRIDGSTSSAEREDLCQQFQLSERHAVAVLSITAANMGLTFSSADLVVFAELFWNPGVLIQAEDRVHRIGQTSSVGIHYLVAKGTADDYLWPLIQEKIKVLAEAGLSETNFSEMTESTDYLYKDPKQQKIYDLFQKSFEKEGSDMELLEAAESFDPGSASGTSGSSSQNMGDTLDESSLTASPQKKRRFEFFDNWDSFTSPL

Measured: binding

linear ubiquitin chain assembly complex (LUBAC), purified as HIS-tagged HOIP with the subunit HOIL-1, biotin-labelled (from UniProt Q96EP0 1-1072; Q9BYM8 1-510)
binds: all assays above
